Earlier results, collected in patent US10806871B2, “Inhalable dry powders” (priority 2012, dated 2020).
For at least one compound, name, drawing or mass did not settle the structure.

Conditions: 20-30° C., 1 bar; cited from earlier work

[Cl-].[K+] [Potassium chloride]
Water solubility: 1 g/2.8 mL^1
